Source: article doi:10.1101/2024.03.22.586069
No constants are given. Whether binding was seen depends on the method and setting.

Target: T1, full-length human myelin protein zero (P0) (human), P25189
T1 chain: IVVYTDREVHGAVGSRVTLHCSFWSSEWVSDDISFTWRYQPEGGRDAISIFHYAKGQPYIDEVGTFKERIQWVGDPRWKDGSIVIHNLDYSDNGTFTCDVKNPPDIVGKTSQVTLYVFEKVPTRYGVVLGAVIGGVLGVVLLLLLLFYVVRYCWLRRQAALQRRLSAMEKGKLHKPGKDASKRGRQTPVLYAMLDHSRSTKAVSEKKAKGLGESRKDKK
Test: SEC-SAXS
Details: remark: other sources report otherwise

- binding: no binding (tested: 0.94 mg/ml)
B1: full-length human myelin protein zero (P0), P25189 30-248 (protein)
chain: IVVYTDREVHGAVGSRVTLHCSFWSSEWVSDDISFTWRYQPEGGRDAISIFHYAKGQPYIDEVGTFKERIQWVGDPRWKDGSIVIHNLDYSDNGTFTCDVKNPPDIVGKTSQVTLYVFEKVPTRYGVVLGAVIGGVLGVVLLLLLLFYVVRYCWLRRQAALQRRLSAMEKGKLHKPGKDASKRGRQTPVLYAMLDHSRSTKAVSEKKAKGLGESRKDKK
